## Screening data, single-dose tests

The chains behind the UniProt entries cited, without tags or fusion partners. Residues count along the entry.
UniProt Q8IDJ8, 1-583: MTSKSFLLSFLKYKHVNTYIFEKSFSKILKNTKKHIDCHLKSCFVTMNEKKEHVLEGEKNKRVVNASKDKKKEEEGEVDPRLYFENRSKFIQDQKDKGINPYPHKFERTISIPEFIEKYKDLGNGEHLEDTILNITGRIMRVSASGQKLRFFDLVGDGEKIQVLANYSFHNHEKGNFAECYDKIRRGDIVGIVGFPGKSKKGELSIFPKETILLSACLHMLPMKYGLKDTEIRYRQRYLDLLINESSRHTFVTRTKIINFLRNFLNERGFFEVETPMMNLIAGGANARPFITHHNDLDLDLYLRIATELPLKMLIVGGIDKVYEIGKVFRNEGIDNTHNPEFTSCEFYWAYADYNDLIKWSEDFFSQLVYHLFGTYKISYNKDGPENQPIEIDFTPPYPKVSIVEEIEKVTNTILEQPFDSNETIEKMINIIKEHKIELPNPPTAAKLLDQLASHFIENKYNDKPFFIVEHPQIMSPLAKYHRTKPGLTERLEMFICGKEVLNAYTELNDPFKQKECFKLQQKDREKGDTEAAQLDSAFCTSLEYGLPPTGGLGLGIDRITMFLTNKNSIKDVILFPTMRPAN
UniProt P9WFT3, whole entry: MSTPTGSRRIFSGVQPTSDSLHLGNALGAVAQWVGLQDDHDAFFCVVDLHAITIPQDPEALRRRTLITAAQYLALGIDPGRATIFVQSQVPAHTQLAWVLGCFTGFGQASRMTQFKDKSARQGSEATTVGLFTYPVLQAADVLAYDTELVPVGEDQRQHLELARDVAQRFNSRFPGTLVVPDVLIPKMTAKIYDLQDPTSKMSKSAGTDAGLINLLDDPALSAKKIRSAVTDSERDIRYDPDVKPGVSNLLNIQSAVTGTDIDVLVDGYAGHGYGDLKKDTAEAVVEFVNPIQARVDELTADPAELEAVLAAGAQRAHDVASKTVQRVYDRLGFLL
UniProt P9WPC5, whole entry: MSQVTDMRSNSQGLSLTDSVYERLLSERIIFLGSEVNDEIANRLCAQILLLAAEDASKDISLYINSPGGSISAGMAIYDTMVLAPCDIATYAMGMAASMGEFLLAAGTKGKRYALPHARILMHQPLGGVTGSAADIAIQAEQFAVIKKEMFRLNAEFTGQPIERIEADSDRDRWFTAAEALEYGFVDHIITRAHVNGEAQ
UniProt P9WPC3, whole entry partner: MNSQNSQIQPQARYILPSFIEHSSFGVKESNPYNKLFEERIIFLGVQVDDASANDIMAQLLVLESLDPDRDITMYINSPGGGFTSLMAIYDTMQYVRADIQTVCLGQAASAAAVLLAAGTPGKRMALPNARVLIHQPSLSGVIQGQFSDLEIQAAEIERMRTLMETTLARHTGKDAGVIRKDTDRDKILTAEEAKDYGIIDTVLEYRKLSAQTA
UniProt Q4DA54, 1-478: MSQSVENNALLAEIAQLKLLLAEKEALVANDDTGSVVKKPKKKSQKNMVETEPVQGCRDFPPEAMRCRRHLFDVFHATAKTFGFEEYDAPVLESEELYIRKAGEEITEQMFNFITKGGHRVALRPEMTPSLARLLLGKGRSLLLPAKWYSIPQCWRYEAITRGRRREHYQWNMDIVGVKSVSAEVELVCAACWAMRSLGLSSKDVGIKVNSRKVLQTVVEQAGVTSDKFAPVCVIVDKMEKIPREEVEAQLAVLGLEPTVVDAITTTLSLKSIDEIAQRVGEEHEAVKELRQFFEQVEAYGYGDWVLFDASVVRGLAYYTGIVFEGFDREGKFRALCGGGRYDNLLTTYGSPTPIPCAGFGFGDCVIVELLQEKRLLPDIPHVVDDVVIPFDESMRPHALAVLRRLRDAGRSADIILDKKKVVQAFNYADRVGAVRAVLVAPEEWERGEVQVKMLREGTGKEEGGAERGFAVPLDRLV

Measurements from “University of Dundee, Small-Polar-MMV Screening Library” (2021), ChEMBL document CHEMBL3988442.

The filed quantity is “Percent Effect” (%).
The controls that fix the scale are not given in the record; negative values are as filed.
This is an unselected part of the compounds tested.

A: 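Enzyme assay of the cytosolic lysyl-tRNA synthetase in 384-well plates, read by luminescence. Target: Lysine-tRNA ligase, Plasmodium falciparum 3D7 (UniProt Q8IDJ8). Tested at 30 µM. Direction is inferred from only a few compounds that gave an IC50; most scored high, so higher reads as stronger inhibition. About 69,000 compounds were tested under these conditions; 0.071% (about 49) showed 50% or more at least once.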
B: 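Enzyme assay of tryptophanyl-tRNA synthetase; the read-out is not stated. Target: Tryptophan-tRNA ligase, Mycobacterium tuberculosis (UniProt P9WFT3). Concentration: 10 µM. Higher most likely means stronger inhibition; the record gives no direction and few retests gave an IC50. Of about 65,000 compounds tested this way, about 64 (0.098%) reached 50% or more in at least one test.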
C: 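ClpP1P2, Mycobacterium tuberculosis (UniProt P9WPC5 and UniProt P9WPC3). Protease assay of ClpP1P2, read by the AMC dye that it sets free. Compounds at 50 µM. Higher reads as stronger inhibition, judged from the few compounds that gave an IC50. Most other retested compounds had strongly negative values. About 69,000 compounds were tested under these conditions; 0.015% (about 10) showed 50% or more at least once.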
D: 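Histidine-tRNA ligase, Trypanosoma cruzi CL Brener (UniProt Q4DA54). Enzyme assay of histidyl-tRNA synthetase; the read-out is not stated. Compounds at 30 µM. Direction is inferred from retests: higher values go with stronger inhibition. Size under these conditions: about 69,000 compounds, about 31 of them at 50% or above in at least one test.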

CCC(Nc1nnnn1-c1ccccc1)C(=O)NC1CCSCC1 (stereo unspecified) read A: 3.436%; B: -1.372%; C: 4.114%; D: 3.333%.
CC(C)NC1CCCc2nc(-c3ccccc3)ncc21 (stereo unspecified) read A: 1.029%; B: -0.5415%; C: -7.728%; D: 6.383%.
Cc1cccc(NC(=O)C2CSc3ncc(C)c(=O)n3C2)n1 (stereo unspecified) read A: 4.376%; B: 0.4575%; C: -12.82%; D: 2.41%.
Cc1nc(-c2ccc(Cl)s2)sc1C(=O)O read A: 9.421%; B: -0.8567%; C: 1.472%; D: -1.478%.
Cc1ccc2[nH]c(CN3CC[C@@H](N4CCN(C)CC4)[C@H](O)C3)c(C)c2c1 read A: -0.183%; B: 2.654%; C: -7.487%; D: 5.941%.
Cc1cc(C)c2c(c1)C(NCc1c(C)nn(C)c1N(C)C)CCO2 (stereo unspecified) read A: -0.5955%; B: -2.197%; C: -12.62%; D: 7.101%.
COc1ccc(-c2noc(C(CC(C)C)N3CCCCC3=O)n2)cn1 (stereo unspecified) read A: -1.812%; B: -4.383%; C: -5.049%; D: -1.149%.
COCC(O)CN(C)c1cc(C(F)(F)F)nc(-c2cccnc2)n1 (stereo unspecified) read A: 0.4346%; B: 2.824%; C: 3.461%; D: 8.333%.
CC(C)N1CCC(N(C)c2ccnc(N(C)C)n2)CC1 read A: -1.765%; B: -1.149%; C: -3.994%; D: -2.89%.
CCN1CC[C@@H]2OC[C@H](C(=O)NCc3cccs3)C[C@@H]2C1 read A: -2.844%; C: -109.8%; D: 6.349%.
CN1C[C@@H]2CN(C(=O)NCc3ccccc3)CCC[C@]2(C(=O)O)C1 read A: 7.989%; B: -3.843%; C: 5.317%; D: 0%.
Cc1nc(CN2CCCC3(CCN(c4cnn(C)c4)C3=O)C2)cs1 (stereo unspecified) read A: -0.5189%; B: -4.344%; C: -19.23%; D: 0.9524%.
COC(=O)[C@H](C)NC(=O)Cn1ccc2ccc(F)cc21 read A: -0.5447%; B: -4.146%; C: -15.83%; D: 4.167%.
CC(C)C(=O)N1CCC(NC2CCSCC2)C1 (stereo unspecified) read A: 1.651%; B: -4.754%; C: 4.077%; D: -2.597%.
CCN(CC)S(=O)(=O)c1ccc2c(c1)N(Cc1ccncc1)C(=O)CS2 read A: 5.055%; B: -2.884%; C: -10.63%; D: 6%.
CNC(=O)c1ccc(CN2CCN(C3=NCC(C)(C)S3)CC2)cc1 read A: -6.815%; B: 0.4823%; C: -5.68%; D: 3.96%.
CC(=O)N[C@@H]1CN(C2CCN(c3cccc(Cl)c3)CC2)C[C@H]1C(C)C read A: 2.855%; B: -3.43%; C: -6.876%; D: 6.145%.
CCO[C@H]1C[C@@H](O)C12CCN(C(=O)CC(F)(F)F)CC2 read A: 3.405%; B: -7.109%; C: -4.8%; D: 3.017%.
Cc1ccc(S(N)(=O)=O)cc1C(=O)NC1CCCN(C)C1 (stereo unspecified) read A: 6.203%; B: 4.112%; C: -2.189%; D: 9%.
CCN1CCC2(CC1)CC(NC(=O)c1ccnnc1)c1ccccc12 (stereo unspecified) read A: 4.333%; B: -2.913%; C: -0.5042%; D: 5.063%.
Cc1ccc2c(c1)CN(CC(=O)NCCc1ccc(F)cc1)CC(C)O2 (stereo unspecified) read A: -1.212%; B: 0.899%; C: -16.41%; D: 3.614%.
COc1cccc(COCC(=O)N2CCCC(n3cncn3)C2)c1 (stereo unspecified) read A: 0.9951%; B: -1.554%; C: -12.69%; D: 3.779%.
CC(C)C(NC(N)=O)C(=O)NCc1ccc(N2CCCC2)nc1 (stereo unspecified) read A: 1.517%; B: -1.271%; C: -29.54%; D: 1.453%.
CCN1CCN(Cc2c(C3CCCC3)[nH]c3ncccc23)CC1 read A: 3.925%; C: 15.05%; D: 5.556%.
NC(=O)C1CCCN(c2ccc(CNC(=O)c3cnsn3)cc2)C1 (stereo unspecified) read A: 2.402%; B: -0.7668%; C: 13.9%; D: 3.944%.
CC(C)OC(=O)N1CCCC(c2nccn2Cc2ccncc2)C1 (stereo unspecified) read A: 3.628%; B: 0.6734%; C: -19.81%; D: 5.102%.
COCCn1cnc2ccc(NC(=O)CCCn3cccn3)cc2c1=O read A: 4.17%; B: 1.961%; C: 1.684%; D: 11%.
O=C(C1CN(CC2CC2)CC12CCOCC2)N1CCOCC1 (stereo unspecified) read A: 7.44%; B: -7.502%; C: -9.666%; D: 9.195%.
CCC/C=C/c1ccc(CN2CCCC2)cn1 read A: 4.196%; B: -1.102%; C: 5.888%; D: 26.62%.
COc1cccc(-c2n[nH]c3c2CN(C(=O)c2cccc(=O)[nH]2)CC3)c1 read A: 55.12%; B: 2.249%; C: 0.396%; D: 2.128%.
C[C@@H]1CN(C(=O)C2CCS(=O)(=O)CC2)C[C@@]1(O)C1CC1 read A: 4.209%; B: 2.083%; C: 4.209%; D: 3.627%.
CCc1ncc(C(=O)NC(C)(C)C(=O)OC)s1 read A: -10.85%; B: 2.566%; C: 8.343%; D: 7.843%.
CN1CCC(N2Cc3nc(N)ncc3C2=O)CC1 read A: 2.22%; B: 2.202%; C: 4.808%; D: -0.8696%.
COC[C@]12COC[C@H]1CN(C(=O)C1CC(F)(F)C1)C2 read A: 6.297%; B: -4.209%; C: -1.407%; D: 6.897%.

The first 4 entries again:

* CCC(Nc1nnnn1-c1ccccc1)C(=O)NC1CCSCC1 (stereo unspecified) | A: 3.436%; B: -1.372%; C: 4.114%; D: 3.333%
* CC(C)NC1CCCc2nc(-c3ccccc3)ncc21 (stereo unspecified) | A: 1.029%; B: -0.5415%; C: -7.728%; D: 6.383%
* Cc1cccc(NC(=O)C2CSc3ncc(C)c(=O)n3C2)n1 (stereo unspecified) | A: 4.376%; B: 0.4575%; C: -12.82%; D: 2.41%
* Cc1nc(-c2ccc(Cl)s2)sc1C(=O)O | A: 9.421%; B: -0.8567%; C: 1.472%; D: -1.478%